Experimental data published in PubChem BioAssay AID588856 (National Center for Advancing Translational Sciences (NCATS), 2011).
This list holds what a sample rich in hits left over. Calls of active or inactive are those of the source. The call rests on the fitted dose curve; in most records, active means well fitted cell-killing curve with a large enough effect; inactive means no such curve, though single readings can be large or run the other way.

Assay: qHTS for Inhibitors of TGF-b: Cytotox Counterscreen
Conditions: HepG2 CAGA-GFP viability, ATP luminescence, 18 h; at 46.1 µM (top of the series)
Description: TGF-b is a main component in the TGF-b signaling pathway which plays diverse roles in cellular and development pathways. TGF-b is mediated by transcription factors called "Smads". Although the Smad-dependent pathway is the primary canonical TGF-b signaling mode, TGF-b1 can also activate alternative signaling pathways, including those involving MAPK (ERK, JNK and p38). This interaction may mediate or enhance Smad-dependent responses, or can exert Smad-independent effects. The complexity of this signaling cascade allows the TGF-b superfamily to perform unique, overlapping or redundant functions. […] We aim to identify Smad3-small molecule antagonists using a quantitative high throughput screening (qHTS) approach. […]
Suspensions of trypsinized HEPG2 CAGA-GFP cells were dispensed into white, tissue culture-treated, solid 1536-well plates at 5uL/well (1000 cells/well final concentration) in DMEM medium supplemented with 1% FBS. […] Two uL of CellTiter Glo (Promega), a luminescence-based viability reagent, was dispensed, followed by a 10 minute room temperature incubation. The plates were then measured on a PerkinElmer ViewLux plate reader for luminescence (clear filter) using a 5 second exposure. The %Activity was determined from the corrected luminescence values. […]
Concentration-response curves were fitted to the signals arising from the resulting luminescence. […]

| Structure (SMILES) | activity change, negative = cytotoxicity |
| --- | --- |
| CNC1CCc2cc(OC)c(OC)c(OC)c2-c2ccc(SC)c(=O)cc21 (stereo unspecified) | inactive: -21.8% |
